# Some entries share one result that the patent states for a list of compounds.
# Test system: RAW 264.7 macrophages
# Test: detection of peroxynitrite resulting from phagocytosis by flow cytometry
# Type: cell-based
# Excerpt: The ability of the pro-fluorophore Compounds 1-8 to generate cellular fluorescence was studied. The protocol included treating living RAW 264.7 macrophages with pro-fluorophore Compounds 1-8 and quantified cellular fluorescence by flow cytometry (FIGS. 6A-6B). To trigger phagocytosis and production of endogenous peroxynitrite, these cells were additionally treated with chemically-modified amino-tentagel beads. These beads were either covalently derivatized with the fluorophore Pacific Blue, to provide a less immunostimulatory control, or covalently conjugated with DNP and non-covalently bound to anti-DNP IgG, to promote bead phagocytosis as shown in FIG. 9. […]
# The ER-targeting pro-fluorophores were compared with non-ER-targeted sensors of peroxynitrite: hydroxyphenyl fluorescein (HPF) and fluorescein boronate (Fl-B). Since the fluorescence of HPF can be affected by serum proteins, cells were treated with this compound in Hank's balanced salt solution (HBSS). […]
# RAW264.7 macrophages were seeded on a non-treated 96-well plate (USA Scientific) in complete media (40,000 cells, 200 μL per well) 16 h prior to treatment. […] Cellular fluorescence was analyzed by flow cytometry. Viability was determined by gating based on staining of cells with compromised membranes with PI. […] Median values of fluorescence of living cells in the FITC-A channel (525/40 nm) were compared and plotted.
smiles,measurement,value
Cc1ccccc1-c1c2cc(F)c(=O)cc-2oc2cc(N(C)c3cc(C)c(O)c(C)c3)c(F)cc12 [Compound 3],detecting peroxynitrite in the ER,all work for detecting peroxynitrite in the ER

# Reference: patent US10663471B2, “Fluorescent sensors of peroxynitrite targeted to the endoplasmic reticulum” (The University of Kansas, priority 2018, dated 2020)
